The target of the data set is Oct4 (Mus musculus) (UniProt P20263). The data set can be described thus: competition with a labelled probe. As to conditions: 9-90 nM competitor vs 9 nM ESRRB nucleosome, 67.5 nM Oct4, 5 min; 25 mM HEPES pH 7.6, 50 mM NaCl, 0.5 mM EDTA, 1 ug/ul BSA, 0.8 mM DTT, 10% glycerol, 25 C, 1 h; 20 nM nucleosome, 0.05-0.4 uM Oct4; recombinant protein; protein details: pOPIN-cHis, 3C protease cleaved on TALON column.

The chains behind the UniProt entries cited, without tags or fusion partners.
UniProt P20263, whole entry: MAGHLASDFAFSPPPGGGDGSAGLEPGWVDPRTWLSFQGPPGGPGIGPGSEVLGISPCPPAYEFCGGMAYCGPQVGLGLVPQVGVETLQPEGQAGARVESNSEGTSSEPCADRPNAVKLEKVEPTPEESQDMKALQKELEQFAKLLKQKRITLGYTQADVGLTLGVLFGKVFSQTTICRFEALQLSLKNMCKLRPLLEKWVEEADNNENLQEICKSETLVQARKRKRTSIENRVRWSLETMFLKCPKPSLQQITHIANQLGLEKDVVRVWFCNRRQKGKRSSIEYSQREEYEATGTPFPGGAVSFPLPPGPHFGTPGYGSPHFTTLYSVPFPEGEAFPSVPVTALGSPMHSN

The exact form of at least one protein or probe is not confirmed. At least one verdict rests on a figure or table, not on a statement of the authors.

In the case of “AAGTGATAGTTATGCAGAGCGAATGGAGGG (double strand) [ESRRB specific competitor oligo]”, the binding result was “binds”.

Values taken from article PMC9561370.
